# Experimental data from article PMC9100061.
# The chains behind the UniProt entries cited, without tags or fusion partners. Where a name states a change or a piece, a line headed by the entry shows the natural chain unless it says otherwise.
# UniProt O95831: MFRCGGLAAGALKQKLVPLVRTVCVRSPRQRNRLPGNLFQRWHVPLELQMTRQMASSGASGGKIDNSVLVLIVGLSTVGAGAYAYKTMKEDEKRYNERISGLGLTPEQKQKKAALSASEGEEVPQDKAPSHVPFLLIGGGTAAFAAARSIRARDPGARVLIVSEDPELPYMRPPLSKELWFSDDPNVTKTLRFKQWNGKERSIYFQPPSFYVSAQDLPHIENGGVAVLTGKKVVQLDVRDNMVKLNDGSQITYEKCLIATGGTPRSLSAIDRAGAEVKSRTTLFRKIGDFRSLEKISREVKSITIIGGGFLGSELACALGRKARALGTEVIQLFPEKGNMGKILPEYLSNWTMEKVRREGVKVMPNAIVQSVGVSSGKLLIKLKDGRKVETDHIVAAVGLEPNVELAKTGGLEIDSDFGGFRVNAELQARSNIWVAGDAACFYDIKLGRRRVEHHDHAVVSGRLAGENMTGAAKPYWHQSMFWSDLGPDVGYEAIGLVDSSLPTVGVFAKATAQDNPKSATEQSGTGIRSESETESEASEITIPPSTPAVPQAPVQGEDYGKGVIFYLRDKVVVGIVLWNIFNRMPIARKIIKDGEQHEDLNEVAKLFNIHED
# Results are given in words; binding and its absence hold for the method and conditions named. Binding seen in cells or lysates may run through a third protein. Binding can be weak; no strength is given. Where a sequence is shown, tags or fusion partners need not be part of it.
# B1: myeloid leukemia factor 2 (MLF2), HA-tagged (protein, UniProt Q15773 1-248)
# chain: MFRFMRDVEPEDPMFLMDPFAIHRQHMSRMLSGGFGYSPFLSITDGNMPGTRPASRRMQQAGAVSPFGMLGMSGGFMDMFGMMNDMIGNMEHMTAGGNCQTFSSSTVISYSNTGDGAPKVYQETSEMRSAPGGIRETRRTVRDSDSGLEQMSIGHHIRDRAHILQRSRNHRTGDQEERQDYINLDESEAAAFDDEWRRETSRFRQQRPLEFRRLESSGAGGRRAEGPPRLAIQGPEDSPSRQSRRYDW
# Molecular target: FLAG-tagged AIFM1 (UniProt O95831)
# Assay: co-IP; IP with Anti-FLAG M2 Affinity Gel under native conditions from TorsinKO HeLa cells co-expressing MLF2-HA and a FLAG-tagged construct for 24 h; NET buffer (150 mM NaCl, 50 mM Tris pH 7.4, 0.5% NP-40) with 5 mM NEM; immunoblot against FLAG and HA
binder,measurement,value
B1,binding,binds
